Earlier results, collected in patent publication US11998615B2, “Functionalized nanoparticles and their use in treating bacterial infections” (The Board of Trustees of the Leland Stanford Junior …, priority 2021, dated 2024).
Some of these results come from one statement about several compounds together.

System: extensively drug-resistant (XDR) PA (ID 1674623 from Emery Pharma)
Set-up: unit not given beside the values
Details: cited from earlier work

In the case of Gentamicin, the MIC is listed as greater than 8.
